PubChem BioAssay AID1224828 – NIAID – 2016

Screen: 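Find genes required for NF-kappaB p65 moving into the nucleus after LPS in mouse macrophages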 (primary screen)
Cells: mouse RAW264.7 G9 macrophage reporter cells (GFP-p65, Tnf promoter-mCherry)
Knock-down reagent: siRNA pool against mouse genes, 100 nM
Time to read-out: 2 days siRNA transfection, then 40 min LPS before fixation
Conditions: LPS (Salmonella minnesota R595) at 10 ng/ml
Measurement: 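Imaged p65 nuclear translocation ratio, normalised to the plate median, converted to robust z-scores and averaged across two replicates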
Reading the numbers: p65 translocation robust z-score: higher = more nuclear NF-kappaB p65 after LPS than the plate median; nuclear/cytoplasmic p65 ratio: higher = more nuclear NF-kappaB p65
Hit rule: 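Active if robust z is above 3.3 (negative regulators) or below -1.56, the Tlr4 control median (positive regulators); activity score 50 or more; control wells not called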
Meaning of the calls: active = hit (p65 shift raised or lowered); inactive = no clear change
Here is a random part of about 17,000 reagents tested. 762 of them (4.5%) were called active. 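Active calls include both raised and lowered p65 entry, mostly lowered; wells with fewer than 50 cells lack a z-score.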 Raw values vary from plate to plate and are shown uncorrected. A number with no mark means an inactive call. No sequences are given here.

{"gene symbol": "Or10q12", "p65 translocation robust z-score": 0.74, "nuclear/cytoplasmic p65 ratio, rep 1": 1.66, "nuclear/cytoplasmic p65 ratio, rep 2": 1.57, "low cell count flag": "enough cells to score"}
{"gene symbol": "Sema4a", "p65 translocation robust z-score": -0.38, "nuclear/cytoplasmic p65 ratio, rep 1": 1.41, "nuclear/cytoplasmic p65 ratio, rep 2": 1.17, "low cell count flag": "enough cells to score"}
{"gene symbol": "Cd320", "p65 translocation robust z-score": 0.99, "nuclear/cytoplasmic p65 ratio, rep 1": 1.3, "nuclear/cytoplasmic p65 ratio, rep 2": 1.47, "low cell count flag": "enough cells to score"}
{"gene symbol": "Col17a1", "p65 translocation robust z-score": -0.14, "nuclear/cytoplasmic p65 ratio, rep 1": 1.33, "nuclear/cytoplasmic p65 ratio, rep 2": 1.36, "low cell count flag": "enough cells to score"}
{"gene symbol": "Msl1", "p65 translocation robust z-score": 0.16, "nuclear/cytoplasmic p65 ratio, rep 1": 1.3, "nuclear/cytoplasmic p65 ratio, rep 2": 1.32, "low cell count flag": "enough cells to score"}
{"gene symbol": "Sertad1", "p65 translocation robust z-score": -1.52, "nuclear/cytoplasmic p65 ratio, rep 1": 1.43, "nuclear/cytoplasmic p65 ratio, rep 2": 1.23, "low cell count flag": "enough cells to score"}
{"gene symbol": "Sox6", "nuclear/cytoplasmic p65 ratio, rep 1": 1.28, "nuclear/cytoplasmic p65 ratio, rep 2": 1.34, "low cell count flag": "fewer than 50 cells per well; well left out of scoring"}
{"gene symbol": "Hsd3b1", "nuclear/cytoplasmic p65 ratio, rep 1": 1.16, "nuclear/cytoplasmic p65 ratio, rep 2": 1.17, "low cell count flag": "fewer than 50 cells per well; well left out of scoring"}
{"gene symbol": "1700008J07RIK", "nuclear/cytoplasmic p65 ratio, rep 1": 1.51, "nuclear/cytoplasmic p65 ratio, rep 2": 1.57, "low cell count flag": "fewer than 50 cells per well; well left out of scoring"}
{"gene symbol": "Arpc1b", "p65 translocation robust z-score": 0.75, "nuclear/cytoplasmic p65 ratio, rep 1": 1.81, "nuclear/cytoplasmic p65 ratio, rep 2": 1.66, "low cell count flag": "enough cells to score"}
{"gene symbol": "Ccng1", "p65 translocation robust z-score": -1.11, "nuclear/cytoplasmic p65 ratio, rep 1": 1.29, "nuclear/cytoplasmic p65 ratio, rep 2": 1.24, "low cell count flag": "enough cells to score"}
{"gene symbol": "Spinkl", "p65 translocation robust z-score": 0.79, "nuclear/cytoplasmic p65 ratio, rep 1": 1.48, "nuclear/cytoplasmic p65 ratio, rep 2": 1.71, "low cell count flag": "enough cells to score"}
{"gene symbol": "1700128F08Rik", "p65 translocation robust z-score": "-2.91 (active)", "nuclear/cytoplasmic p65 ratio, rep 1": 1.11, "nuclear/cytoplasmic p65 ratio, rep 2": 1.04, "low cell count flag": "enough cells to score"}
{"gene symbol": "Bhmt2", "nuclear/cytoplasmic p65 ratio, rep 1": 1.39, "nuclear/cytoplasmic p65 ratio, rep 2": 1.26, "low cell count flag": "fewer than 50 cells per well; well left out of scoring"}
{"gene symbol": "Hibadh", "p65 translocation robust z-score": 1.25, "nuclear/cytoplasmic p65 ratio, rep 1": 1.56, "nuclear/cytoplasmic p65 ratio, rep 2": 1.73, "low cell count flag": "enough cells to score"}
{"gene symbol": "Cdca4", "p65 translocation robust z-score": -0.45, "nuclear/cytoplasmic p65 ratio, rep 1": 1.55, "nuclear/cytoplasmic p65 ratio, rep 2": 1.32, "low cell count flag": "enough cells to score"}
{"gene symbol": "Impg2", "p65 translocation robust z-score": -0.93, "nuclear/cytoplasmic p65 ratio, rep 1": 1.52, "nuclear/cytoplasmic p65 ratio, rep 2": 1.32, "low cell count flag": "enough cells to score"}
{"gene symbol": "Prkcq", "p65 translocation robust z-score": -0.44, "nuclear/cytoplasmic p65 ratio, rep 1": 1.65, "nuclear/cytoplasmic p65 ratio, rep 2": 1.3, "low cell count flag": "enough cells to score"}
{"gene symbol": "Rac1", "p65 translocation robust z-score": 0.11, "nuclear/cytoplasmic p65 ratio, rep 1": 1.7, "nuclear/cytoplasmic p65 ratio, rep 2": 1.39, "low cell count flag": "enough cells to score"}
{"gene symbol": "Pgrmc2", "p65 translocation robust z-score": -0.41, "nuclear/cytoplasmic p65 ratio, rep 1": 1.41, "nuclear/cytoplasmic p65 ratio, rep 2": 1.39, "low cell count flag": "enough cells to score"}
{"gene symbol": "Ube2o", "p65 translocation robust z-score": 0.43, "nuclear/cytoplasmic p65 ratio, rep 1": 1.75, "nuclear/cytoplasmic p65 ratio, rep 2": 1.61, "low cell count flag": "enough cells to score"}
